For one test, the species on record is Homo sapiens. Put plainly: Selectivity ratio of Ki for recombinant human matriptase (596 to 855 residues) expressed in Escherichia coli to Ki for recombinant human C-terminal V5-His-tagged matriptase-2 expressed in Drosophila S2 cells.
For test [1], the target named is T1, Suppressor of tumorigenicity 14 protein (Homo sapiens, UniProt Q9Y5Y6).
T1 sequence (Q9Y5Y6 whole entry): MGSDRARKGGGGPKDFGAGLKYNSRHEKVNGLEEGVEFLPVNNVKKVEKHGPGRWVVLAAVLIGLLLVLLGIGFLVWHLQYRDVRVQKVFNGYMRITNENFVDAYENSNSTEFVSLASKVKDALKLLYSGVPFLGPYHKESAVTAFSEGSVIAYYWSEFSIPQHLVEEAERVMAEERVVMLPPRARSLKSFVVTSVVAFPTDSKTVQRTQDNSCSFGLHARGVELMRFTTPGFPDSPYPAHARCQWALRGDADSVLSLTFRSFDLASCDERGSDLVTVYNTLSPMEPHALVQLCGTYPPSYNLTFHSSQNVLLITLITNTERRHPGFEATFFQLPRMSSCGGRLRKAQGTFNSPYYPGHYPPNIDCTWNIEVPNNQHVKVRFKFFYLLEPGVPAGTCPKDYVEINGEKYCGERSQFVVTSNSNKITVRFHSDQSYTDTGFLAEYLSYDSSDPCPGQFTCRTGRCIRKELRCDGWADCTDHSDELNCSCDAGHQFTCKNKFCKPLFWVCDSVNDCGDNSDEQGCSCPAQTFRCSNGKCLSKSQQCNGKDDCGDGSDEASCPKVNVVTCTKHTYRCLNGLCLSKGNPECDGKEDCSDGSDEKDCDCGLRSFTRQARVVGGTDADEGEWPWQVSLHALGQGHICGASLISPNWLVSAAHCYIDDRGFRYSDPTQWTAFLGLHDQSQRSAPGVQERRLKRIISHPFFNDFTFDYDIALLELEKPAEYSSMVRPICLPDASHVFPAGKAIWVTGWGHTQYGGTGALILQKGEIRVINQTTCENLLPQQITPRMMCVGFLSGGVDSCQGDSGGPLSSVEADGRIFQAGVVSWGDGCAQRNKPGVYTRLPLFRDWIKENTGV

The Ki is the equilibrium dissociation constant of an inhibitor or competing ligand from its target. Read a low Ki as higher affinity. As for `N=C(N)NCCC[C@H](NC(=O)[C@H](Cc1ccc2ccccc2c1)NC(=O)C(Cc1ccc(O)cc1)NC(=O)[C@@H](N)Cc1ccc(O)cc1)C(=O)c1nc2ccccc2s1` (single isomer, unassigned), the Ratio Ki in the test filed under Homo sapiens was 8. For the same molecule, in test [1], the affinity corresponds to a Ki of 0.044 µM.

For the origin of these results see ChEMBL document CHEMBL4007428, “Modulating the selectivity of matriptase-2 inhibitors with unnatural amino acids” (Eur J Med Chem, 2017).
